Results reported in the supplement of paper PMC10689618.
Structures can show the parent of a compound that is named as a salt. ± gives the standard deviation of the averaged measurements. Some of the results follow. Many values rest on one well or one pass, so single values are uncertain.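 Labelled rat cortical synaptosomes were engulfed by primary human fetal astrocytes. Engulfment equaled a red/green ratio, corrected for calcein live-cell signal and normalized to the plate median. Compounds were toxic when calcein dropped over 30%, and reduced phagocytosis when below 70% of the median above 5 µM.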

Assays:
Human fetal astrocytes [1] = assay: loss of total cells relative to no-compound high-control median (toxicity); higher = more toxic (fewer cells); conditions: 24 h
Human fetal astrocytes [2] = assay: synaptosome phagocytosis (pHrodo/calcein intensity ratio) relative to plate median of data wells; higher = more phagocytosis; conditions: 24 h

CC1=C(C(=O)O)N2C(=O)[C@@H](NC(=O)[C@H](N)C3=CCC=CC3)[C@H]2SC1 [Cephradine]
loss of total cells (Human fetal astrocytes [1]; 1.39 µM): -16.1% | loss of total cells (Human fetal astrocytes [1]; 2.78 µM): -9.9% | loss of total cells (Human fetal astrocytes [1]; 5.56 µM): -10.6% | loss of total cells (Human fetal astrocytes [1]; 11.11 µM): 7.6% | loss of total cells (Human fetal astrocytes [1]; 22.22 µM): -7.9% | synaptosome phagocytosis (Human fetal astrocytes [2]; 1.39 µM): 72.8% | synaptosome phagocytosis (Human fetal astrocytes [2]; 2.78 µM): 107% | synaptosome phagocytosis (Human fetal astrocytes [2]; 5.56 µM): 115% | synaptosome phagocytosis (Human fetal astrocytes [2]; 11.11 µM): 109% | synaptosome phagocytosis (Human fetal astrocytes [2]; 22.22 µM): 100%

CC(C)(Sc1ccc(CCN(CCCCC2CCCCC2)C(=O)NC2CCCCC2)cc1)C(=O)O
loss of total cells (Human fetal astrocytes [1]; 1.39 µM): 1.3% | loss of total cells (Human fetal astrocytes [1]; 2.78 µM): -12.8% | loss of total cells (Human fetal astrocytes [1]; 5.56 µM): -0.8% | loss of total cells (Human fetal astrocytes [1]; 11.11 µM): -17.5% | loss of total cells (Human fetal astrocytes [1]; 22.22 µM): 0.8% | synaptosome phagocytosis (Human fetal astrocytes [2]; 1.39 µM): 110% | synaptosome phagocytosis (Human fetal astrocytes [2]; 2.78 µM): 104% | synaptosome phagocytosis (Human fetal astrocytes [2]; 5.56 µM): 85.7% | synaptosome phagocytosis (Human fetal astrocytes [2]; 11.11 µM): 97.2% | synaptosome phagocytosis (Human fetal astrocytes [2]; 22.22 µM): 73.7%

CC(C)NC[C@H](O)COc1cccc2[nH]ccc12 [S(-)-Pindolol]
loss of total cells (Human fetal astrocytes [1]; 1.39 µM): 0.3 ± 17% | loss of total cells (Human fetal astrocytes [1]; 2.78 µM): -3.95 ± 24% | loss of total cells (Human fetal astrocytes [1]; 5.56 µM): -4.9 ± 18% | loss of total cells (Human fetal astrocytes [1]; 11.11 µM): -28.3 ± 33% | loss of total cells (Human fetal astrocytes [1]; 22.22 µM): -24.5 ± 15% | synaptosome phagocytosis (Human fetal astrocytes [2]; 1.39 µM): 95.5 ± 2.4% | synaptosome phagocytosis (Human fetal astrocytes [2]; 2.78 µM): 106 ± 5.9% | synaptosome phagocytosis (Human fetal astrocytes [2]; 5.56 µM): 102 ± 14% | synaptosome phagocytosis (Human fetal astrocytes [2]; 11.11 µM): 105 ± 24% | synaptosome phagocytosis (Human fetal astrocytes [2]; 22.22 µM): 108 ± 8.7%

COc1cccc(OC)c1OCCNCC1CSc2ccccc2O1 (stereo not given) [Benoxathian hydrochloride]
loss of total cells (Human fetal astrocytes [1]; 1.39 µM): -8.1% | loss of total cells (Human fetal astrocytes [1]; 2.78 µM): -8.1% | loss of total cells (Human fetal astrocytes [1]; 5.56 µM): -10.6% | loss of total cells (Human fetal astrocytes [1]; 11.11 µM): -11.2% | loss of total cells (Human fetal astrocytes [1]; 22.22 µM): 4.9% | synaptosome phagocytosis (Human fetal astrocytes [2]; 1.39 µM): 96.3% | synaptosome phagocytosis (Human fetal astrocytes [2]; 2.78 µM): 114% | synaptosome phagocytosis (Human fetal astrocytes [2]; 5.56 µM): 86.6% | synaptosome phagocytosis (Human fetal astrocytes [2]; 11.11 µM): 76.9% | synaptosome phagocytosis (Human fetal astrocytes [2]; 22.22 µM): 83.6%
